Experimental data: PubChem BioAssay AID504764 (Drosophila RNAi Screening Center, 2011)

Purpose: 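Knock-downs that raise or lower a Notch target reporter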 (primary screen)
Cells: Drosophila Kc167 cells
Knock-down reagent: long dsRNA against Drosophila genes
Time to read-out: about 5 days (4 days dsRNA, then 24 h after transfection)
Challenge: transfection of constitutively active membrane-tethered Notch lacking the extracellular domain, read 24 h later
Detection: 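Firefly luciferase from an E(spl)m3 reporter with active Notch, plus control-promoter and uninduced reporter wells for normalisation; unnormalised counts, duplicate wells a and b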
Scale: induced reporter light, run 1, well a and induced reporter light, run 1, well b: higher = more light from the Notch target reporter with active Notch; control promoter light, run 1, well a and control promoter light, run 1, well b: higher = more light from the viral control promoter (cell number, transfection, viability); uninduced reporter light, run 1, well a: higher = more light from the Notch target reporter without active Notch
Active means: 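Wells with low control signal or poorly matching duplicates excluded; duplicates averaged; per source plate, z beyond ±2 for induced/control log2 ratio or beyond ±1.8 for induced/uninduced marks a hit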
Meaning of the calls: active = modifier hit (raised or lowered Notch signal); inactive = not a hit
The screen tested about 22,000 reagents; below is a random part of those with a known target gene and a result. Of all reagents, 403 (1.9%) are marked active. 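Unnormalised raw counts per well; ratio z-scores behind the hit calls and whether each hit raises or lowers signal are not deposited.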 A plus sign joins genes that one reagent is predicted to hit. Not given: the amount of reagent.

| Target gene | DRSC id | induced reporter light, run 1, well a | induced reporter light, run 1, well b | control promoter light, run 1, well a | control promoter light, run 1, well b | uninduced reporter light, run 1, well a | Call |
| --- | --- | --- | --- | --- | --- | --- | --- |
| CG31321 | DRSC13028 | 1.07e5 | 86665 | 1.44e5 | 1.38e5 | 9850 | inactive |
| Cyp309a2 | DRSC00526 | 1.37e5 | 1.25e5 | 1.02e5 | 1.06e5 | 10025 | inactive |
| CG8939 | DRSC20127 | 1.02e5 | 80340 | 1.29e5 | 1.00e5 | 6905 | inactive |
| CG8768 | DRSC07259 | 1.03e5 | 75365 | 76565 | 74430 | 7745 | inactive |
| NANS | DRSC15743 | 1.44e5 | 1.53e5 | 1.44e5 | 1.22e5 | 11290 | inactive |
| CG15864 | DRSC15122 | 62830 | 69390 | 47640 | 57130 | 3815 | inactive |
| CG13751 | DRSC06422 | 1.96e5 | 2.22e5 | 2.27e5 | 2.45e5 | 19355 | inactive |
| CG33170 | DRSC11854 | 98045 | 81040 | 80905 | 80955 | 5000 | inactive |
| CG15605 | DRSC06558 | 1.37e5 | 1.11e5 | 90895 | 1.14e5 | 9720 | inactive |
| hng2 | DRSC16412 | 1.15e5 | 1.40e5 | 1.38e5 | 1.08e5 | 8635 | inactive |
| TwdlN | DRSC15813 | 1.94e5 | 1.78e5 | 2.41e5 | 1.69e5 | 12885 | inactive |
| S6kII | DRSC20645 | 1.16e5 | 1.23e5 | 1.14e5 | 71445 | 8655 | inactive |
| Sulf1 | DRSC16874 | 2.07e5 | 2.02e5 | 1.67e5 | 1.68e5 | 18320 | inactive |
| CG7006 | DRSC16169 | 1.55e5 | 2.06e5 | 2.15e5 | 2.13e5 | 14095 | inactive |
| RagC-D | DRSC07239 | 1.15e5 | 1.22e5 | 1.41e5 | 1.26e5 | 9410 | inactive |
| Eig71Ee | DRSC11152 | 2.07e5 | 2.10e5 | 2.94e5 | 2.96e5 | 8870 | inactive |
| CG3494 | DRSC04375 | 2.54e5 | 1.90e5 | 2.28e5 | 2.17e5 | 16330 | inactive |
| grau | DRSC04691 | 35040 | 23565 | 31095 | 27715 | 1680 | inactive |
| Jarid2 | DRSC10372 | 96025 | 1.27e5 | 85345 | 36030 | 9540 | inactive |
| Pebp1 | DRSC15354 | 2.21e5 | 2.07e5 | 2.08e5 | 2.18e5 | 14295 | inactive |
| Isha | DRSC04456 | 53350 | 55165 | 45965 | 41575 | 4435 | inactive |
| Srp68 | DRSC10475 | 63485 | 72985 | 52970 | 25790 | 4340 | inactive |
| CG42724 | DRSC12567 | 69230 | 54865 | 40445 | 45555 | 5660 | inactive |
| CG42724 | DRSC22275 | – | – | – | – | – | inactive |
| fs(1)h | DRSC18778 | 2.08e5 | 2.08e5 | 3.09e5 | 3.48e5 | 15465 | inactive |
| Alg10 | DRSC10892 | 1.57e5 | 1.41e5 | 1.56e5 | 1.43e5 | 8445 | inactive |
| Dll | DRSC04610 | 1.91e5 | 1.82e5 | 1.74e5 | 1.68e5 | 11450 | inactive |
| mkg-p + Tpt | DRSC10777 | 80775 | 86395 | 52625 | 26925 | 6720 | inactive |
| CG9426 | DRSC03219 | 1.44e5 | 1.58e5 | 1.43e5 | 1.37e5 | 11700 | inactive |
| CtIP | DRSC11785 | 1.11e5 | 1.09e5 | 1.04e5 | 93840 | 6015 | inactive |
| CG15706 | DRSC06577 | 69935 | 67785 | 98215 | 76465 | 7590 | inactive |
| Ddr | DRSC00922 | 1.20e5 | 94875 | 1.41e5 | 1.58e5 | 7380 | inactive |
| Ddr | DRSC00923 | 1.19e5 | 1.21e5 | 1.46e5 | 1.61e5 | 8850 | inactive |
| Ddr | DRSC02150 | 1.96e5 | 1.60e5 | 2.07e5 | 2.15e5 | 10410 | inactive |
| Ddr | DRSC03229 | 1.55e5 | 1.33e5 | 1.85e5 | 1.55e5 | 7795 | inactive |
| Ddr | DRSC03230 | 1.75e5 | 1.64e5 | 2.14e5 | 2.01e5 | 12900 | inactive |
| STUB1 | DRSC03282 | 1.40e5 | 1.66e5 | 95820 | 80630 | 18635 | inactive |
| CG14785 | DRSC18604 | 1.75e5 | 1.63e5 | 2.42e5 | 2.07e5 | 12388 | inactive |
| CG13204 | DRSC06328 | 1.12e5 | 1.09e5 | 1.51e5 | 1.45e5 | 10300 | inactive |
| CG7120 | DRSC10773 | 1.40e5 | 1.25e5 | 1.58e5 | 1.38e5 | 5300 | inactive |
| AsnS | DRSC11468 | 2.30e5 | 2.64e5 | 3.38e5 | 2.72e5 | 20210 | inactive |
| Rab3GAP1 | DRSC00291 | 1.05e5 | 90585 | 77710 | 52590 | 7990 | inactive |
| Rab3GAP1 | DRSC00703 | 1.27e5 | 1.15e5 | 1.02e5 | 68770 | 10835 | inactive |
| CG17378 | DRSC02616 | 54630 | 40160 | 57690 | 43310 | 2425 | inactive |
| CG34238 | DRSC09040 | 1.99e5 | 1.86e5 | 2.10e5 | 2.24e5 | 12495 | inactive |
| CG4607 | DRSC18375 | 1.27e5 | 1.45e5 | 2.68e5 | 2.60e5 | 10430 | inactive |
| CG10013 | DRSC14175 | 1.34e5 | 1.17e5 | 79575 | 87920 | 9420 | inactive |
| Non1 | DRSC05954 | 1.39e5 | 1.28e5 | 1.08e5 | 1.11e5 | 8560 | inactive |
| CG16964 | DRSC02546 | 1.10e5 | 1.43e5 | 1.40e5 | 1.50e5 | 11640 | inactive |
| CG15602 | DRSC19671 | 82945 | 85300 | 1.15e5 | 65535 | 11365 | inactive |

Part of the list above, reformatted.
CG17378 [DRSC02616]
- induced reporter light, run 1, well a: 54630
- induced reporter light, run 1, well b: 40160
- control promoter light, run 1, well a: 57690
- control promoter light, run 1, well b: 43310
- uninduced reporter light, run 1, well a: 2425
- Call: inactive

CG34238 [DRSC09040]
- induced reporter light, run 1, well a: 1.99e5
- induced reporter light, run 1, well b: 1.86e5
- control promoter light, run 1, well a: 2.10e5
- control promoter light, run 1, well b: 2.24e5
- uninduced reporter light, run 1, well a: 12495
- Call: inactive

CG4607 [DRSC18375]
- induced reporter light, run 1, well a: 1.27e5
- induced reporter light, run 1, well b: 1.45e5
- control promoter light, run 1, well a: 2.68e5
- control promoter light, run 1, well b: 2.60e5
- uninduced reporter light, run 1, well a: 10430
- Call: inactive

CG10013 [DRSC14175]
- induced reporter light, run 1, well a: 1.34e5
- induced reporter light, run 1, well b: 1.17e5
- control promoter light, run 1, well a: 79575
- control promoter light, run 1, well b: 87920
- uninduced reporter light, run 1, well a: 9420
- Call: inactive

Non1 [DRSC05954]
- induced reporter light, run 1, well a: 1.39e5
- induced reporter light, run 1, well b: 1.28e5
- control promoter light, run 1, well a: 1.08e5
- control promoter light, run 1, well b: 1.11e5
- uninduced reporter light, run 1, well a: 8560
- Call: inactive
